This note sets out measurements from paper PMC8468827.

The chains behind the UniProt entries cited, without tags or fusion partners.
UniProt Q9VQ93: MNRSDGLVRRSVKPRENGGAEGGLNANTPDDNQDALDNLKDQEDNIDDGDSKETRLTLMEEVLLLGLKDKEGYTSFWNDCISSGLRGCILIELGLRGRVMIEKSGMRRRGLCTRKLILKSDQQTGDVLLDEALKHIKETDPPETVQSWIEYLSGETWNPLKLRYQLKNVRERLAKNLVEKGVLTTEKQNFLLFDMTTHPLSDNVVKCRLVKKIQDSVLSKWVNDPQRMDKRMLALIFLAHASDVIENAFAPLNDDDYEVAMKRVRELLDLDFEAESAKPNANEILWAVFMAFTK

Results are given in words; binding and its absence hold for the method and conditions named. In cells and extracts the contact can be indirect. A yes stands for co-enrichment or nearness to the bait. Other partners may have been found.

B1: CG8230 (protein, UniProt Q7KNA0 1-699)
chain: MGINVSRTADLGSNQWLQRFVGRQHIAHDDEAFWNGLLNYNIVLPENSQDQLNLDSRLEALCQSFIGNNLKTGNFGSLVTVFLEKTSELLSLSDQESNMHVWQTFNALFIIRSLVKYINETGSEFQLLQHFEAMPNAELLQAALEQQQQTPAESATIAMEATEQSAAAAVPVIVDGSKFETFIDALVNLIVVIPVKEFTYHLHLEAVNMLITLLSVHLFAQQPTDKSIVFRTVFKCQHANVLMSALLHFVARIVEVPHTMFGSSSAGSFVFGIAESLLSIFTFRKQPDILKAGQAAGGGELSQRFRTHYPLANQSLLLILILTNHCTAQDNAYRTSLFSCADSKDSPKQGAVSFQIDFSAVYETLCTIVTIDQATLLLYLLLHRNERFYRFVMQQQDLEQLVIPILQTLYNAPDSNSHHIYMSLIVLLILSEDEGFNKNVHTIMLKNITWYTERTISEISLGGILILIVIRTIQYNMLKMRDKYLHTNCLAALANMSGHFRALHPYVAQRLVSLFETLARKHTRLDAQLKEPADSAVFVNVSTTPEDMLQDLSVLEEVLRMVLEILNSCLTNQLVYCPNLVYTLLYKRSVFEGFRSHHAFQDVIQNIDMVVGFFSSRLQRVQEQRGELGVNEVLEVISKGASQWSSDRLRKFPDLKFKYVEEDAPEEFFIPYVWTLVCKYGCVHFSSESIKSVTTDIAC
B2: Twins (protein, UniProt P36872 1-499)
chain: MGRWGRQSPVLEPPDPQMQTTPPPPTLPPRTFMRQSSITKIGNMLNTAININGAKKPASNGEASWCFSQIKGALDDDVTDADIISCVEFNHDGELLATGDKGGRVVIFQRDPASKAANPRRGEYNVYSTFQSHEPEFDYLKSLEIEEKINKIRWLQQKNPVHFLLSTNDKTVKLWKVSERDKSFGGYNTKEENGLIRDPQNVTALRVPSVKQIPLLVEASPRRTFANAHTYHINSISVNSDQETFLSADDLRINLWHLEVVNQSYNIVDIKPTNMEELTEVITAAEFHPTECNVFVYSSSKGTIRLCDMRSAALCDRHSKQFEEPENPTNRSFFSEIISSISDVKLSNSGRYMISRDYLSIKVWDLHMETKPIETYPVHEYLRAKLCSLYENDCIFDKFECCWNGKDSSIMTGSYNNFFRVFDRNSKKDVTLEASRDIIKPKTVLKPRKVCTGGKRKKDEISVDCLDFNKKILHTAWHPEENIIAVAATNNLFIFQDKF
B3: Protein phosphatase 2A at 29B (Pp2A-29B) (protein, UniProt P36179 1-591)
chain: MAASDKSVDDSLYPIAVLIDELKNEDVQLRLNSIKKLSTIALALGEERTRSELIPFLTETIYDEDEVLLALADQLGNFTSLVGGPEFAMYLIPPLESLATVEETVVRDKAVESLRTVAAEHSAQDLEIHVVPTLQRLVSGDWFTSRTSACGLFSVCYPRVTQPVKAELRANFRKLCQDETPMVRRAAANKLGEFAKVVETEYLKSDLIPNFVQLAQDDQDSVRLLAVEACVSIAQLLPQDDVEHLVLPTLRQCASDSSWRVRYMVAEKFVDLQKAVGPEITRVDLVPAFQYLLKDAEAEVRAAVATKVKDFCANLDKVNQVQIILSSILPYVRDLVSDPNPHVKSALASVIMGLSPMLGAYQTVEQLLPLFLIQLKDECPEVRLNIISNLDCVNDVIGIQQLSQSLLPAIVELAEDSKWRVRLAIIEYMPALAGQLGQEFFDQKLRGLCMGWLNDHVYAIREAATLNMKKLVEQFGAPWAEQAIIPMILVMSRNKNYLHRMTCLFCLNVLAEVCGTDITTKLLLPTVLLLAADPVANVRFNVAKTLQKISPFLEASVIDAQVKPTLDKLNTDTDVDVKHFAAQAIAGIAAA
B4: 14-3-3ζ (protein, UniProt P29310 1-248)
chain: MSTVDKEELVQKAKLAEQSERYDDMAQAMKSVTETGVELSNEERNLLSVAYKNVVGARRSSWRVISSIEQKTEASARKQQLAREYRERVEKELREICYEVLGLLDKYLIPKASNPESKVFYLKMKGDYYRYLAEVATGDARNTVVDDSQTAYQDAFDISKGKMQPTHPIRLGLALNFSVFYYEILNSPDKACQLAKQAFDDAIAELDTLNEDSYKDSTLIMQLLRDNLTLWTSDTQGDEAEPQEGGDN
B5: Drosophila LST8 (protein, UniProt Q9W328 1-313)
chain: MGDQQQLILATGGYDHTIKVWQAHTGNCIKTMRFVETSQVNALDRTPDKTRLAACGYQCIRLYDLESNCTAPVINFDGVQKNVTRLGFQEDGNWMFTAGEDHHVRIWDMIAAPPHCSRIFDCEAPVNAACLHPNQVEIAMGSQNGSVFLWDVKSERHERIVPEVDASIQDVAISPDGRYLAAANNKGNCYIWSLTSQDQKMSTLRPNRKIPAHSRYILRCKFSPDSRLLLTTSGDGTVCIWKTDDFSKWRELCIENYWVWDAAFSADSKWLFTASSDGIARLWKLQTKSSIRDYTGHTKAITALSFKDEIVGK
B6: Spaghetti Squash (Sqh) (protein, UniProt P40423 1-174)
chain: MSSRKTAGRRATTKKRAQRATSNVFAMFDQAQIAEFKEAFNMIDQNRDGFVEKEDLHDMLASLGKNPTDDYLDGMMNEAPGPINFTMFLTLFGERLQGTDPEDVIKNAFGCFDEENMGVLPEDRLRELLTTMGDRFTDEDVDEMYREAPIKNGLFDYLEFTRILKHGAKDKDEQ
B7: Bond (protein, UniProt Q9VCY7 1-322)
chain: MTNYIKIVEERISGLSKGVDETVDSWFLMSSPMPVVAVVLVYLAFVLKIGPEYMKNRKPMDLKRIMVFYNAFQVLYSIWMCRTSIQESNVMASIFSKKCEINRTREQNLTLYSGAWFYFFSKIIDLLDTTFFVLRKKDNQVSFLHVYHHTITVLFSWGYLKYAPGEQGVIIGILNSGVHIIMYFYYMVAAMGPQYQKYLWWKKYMTSIQLIQFVLILGYMLTVGAKGCNMPKTLTFFFVGNTVIFLYLFGNFYRKTYKKAKSVDGGSRTTGSSLAQSALRAAGGMGCMPQTMNAGKHLLQNGQVGKAYIDLNNNSVKPMKLE
B8: translationally controlled tumor protein (Tctp) (protein, UniProt Q9VGS2 1-172)
chain: MKIYKDIITGDEMFADTYKMKLVDDVIYEVYGKLITRQGDDIKLEGANASAEEADEGTDITSESGVDVVLNHRLTECFAFGDKKSYTLYLKDYMKKVLAKLEEKSPDQVDIFKTNMNKAMKDILGRFKELQFFTGESMDCDGMVALVEYREINGDSVPVLMFFKHGLEEEKC
B9: δCOP (protein, UniProt Q9W555 1-532)
chain: MVLIAAAVCTKNGKVILSRQFVEMTKARIEGLLAAFPKLMTAGKQHTYVETDSVRYVYQPMEKLYMLLITTKASNILEDLETLRLFSKVIPEYSHSLDEKEIVENAFNLIFAFDEIVALGYRESVNLAQIKTFVEMDSHEEKVYQAVRQTQERDARQKMREKAKELQRQRMEASKRGGPSLGGIGSRSGGFSADGIGSSGVSSSSGASSANTGITSIDVDTKSKAAASKPASRNALKLGGKSKDVDSFVDQLKNEGEKIANLAPAAPAGGSSAAASASAAAKAAIASDIHKESVHLKIEDKLVVRLGRDGGVQQFENSGLLTLRITDEAYGRILLKLSPNHTQGLQLQTHPNVDKELFKSRTTIGLKNLGKPFPLNTDVGVLKWRFVSQDESAVPLTINCWPSDNGEGGCDVNIEYELEAQQLELQDVAIVIPLPMNVQPSVAEYDGTYNYDSRKHVLQWHIPIIDAANKSGSMEFSCSASIPGDFFPLQVSFVSKTPYAGVVAQDVVQVDSEAAVKYSSESILFVEKYEIV
B10: Alphabet (protein, UniProt Q9VAK1 1-368)
chain: MGGFLDKPKTAKHNDEGEGNKLLFGVSSMQGWRSEMEDAYYARAGLGDALPDWSFFAVFDGHAGCKVSEHCAKHLLESIISTEEFIGGDHVKGIRTGFLRIDEVMRELPEFTRESEKCGGTTAVCAFVGLTQVYIANCGDSRAVLCRQGVPVFATQDHKPILPEEKERIYNAGGSVMIKRVNGTLAVSRALGDYDFKNVKEKGQCEQLVSPEPEIFCQSRQDSDEFLVLACDGIWDVMSNEDVCSFIHSRMRVTSNLVSIANQVVDTCLHKGSRDNMSIIIIAFPGAPKPTEEAIEAEHRLEKQIEKITRDEIESSKITDYVDLLKCLQNRDDIEGLPPGGGLQSKYHVIERTFKQEFPDRPCESPTH
B11: Mitogen-activated protein kinase kinase (MAPKK) 4 (protein, UniProt O61444 1-424)
chain: MAERPKNLFATGSSRSRNPPDQLSLNNLSIRHPPSSTSSTSSGSTSSGSSSSSQHNHVTRCFGAQQPQQTPPVASSQVPPVPAASSSSAADRHRERIRQQACGKLQFGEGGANTHTFTSDDLEDEGEIGRGAFGAVNKMTFKKLDKVMAVKRIRSTVDEKEQKQLLMDLEVVMKSNECIYIVQFYGALFKEGDCWICMELMDTSLDKFYKYIYEKQQRHIPESILAKITVATVNALNYLKEELKIIHRDVKPSNILLHRRGDIKLCDFGISGQLVDSIAKTKDAGCRPYMAPERIDPERAKGYDVRSDVWSLGITLMEVATGNFPYRKWDSVFEQLCQVVQGEPPRLLTSYNGMEFSKEFVDFVNTCLIKKESDRPKYSRLLEMPFIRRGETSHTDVAVYVADILESMEKDGITQFTANQQAES

This experiment concerns the target dGOLPH3-mRFP (Drosophila) (UniProt Q9VQ93). As to the kind of experiment: affinity purification with mass spectrometry; RFP-trap beads on lysate of 3000 adult testes expressing dGOLPH3-RFP (RFP alone as control); lysis buffer 25 mM Tris-HCl pH 7.4, 150 mM NaCl, 1 mM EDTA, 1% NP-40; washes at 4 °C; nanoLC-MS/MS.
For B1, the binding entry is “binds”. Then B2, with “binds”.

On to B3, for which the binding result is “binds”. For B4 the value was “binds”; for B5, “binds”; for B6, “binds”. Then B7, with “binds”; and B8, with “binds”. Take B9: the binding entry is given as “binds”. In the case of B10, the binding entry is on record as “binds”. Turning to B11, the binding result is reported as “binds”.
